According to the supplement of paper PMC10849652:
This is one part of the list.

Protein sequences, listed by entry. Tags and fused reporters are not part of them. Lines headed by an entry give the natural chain unless they say otherwise; changes in a name come on top.
UniProt Q92556, whole entry, looked up: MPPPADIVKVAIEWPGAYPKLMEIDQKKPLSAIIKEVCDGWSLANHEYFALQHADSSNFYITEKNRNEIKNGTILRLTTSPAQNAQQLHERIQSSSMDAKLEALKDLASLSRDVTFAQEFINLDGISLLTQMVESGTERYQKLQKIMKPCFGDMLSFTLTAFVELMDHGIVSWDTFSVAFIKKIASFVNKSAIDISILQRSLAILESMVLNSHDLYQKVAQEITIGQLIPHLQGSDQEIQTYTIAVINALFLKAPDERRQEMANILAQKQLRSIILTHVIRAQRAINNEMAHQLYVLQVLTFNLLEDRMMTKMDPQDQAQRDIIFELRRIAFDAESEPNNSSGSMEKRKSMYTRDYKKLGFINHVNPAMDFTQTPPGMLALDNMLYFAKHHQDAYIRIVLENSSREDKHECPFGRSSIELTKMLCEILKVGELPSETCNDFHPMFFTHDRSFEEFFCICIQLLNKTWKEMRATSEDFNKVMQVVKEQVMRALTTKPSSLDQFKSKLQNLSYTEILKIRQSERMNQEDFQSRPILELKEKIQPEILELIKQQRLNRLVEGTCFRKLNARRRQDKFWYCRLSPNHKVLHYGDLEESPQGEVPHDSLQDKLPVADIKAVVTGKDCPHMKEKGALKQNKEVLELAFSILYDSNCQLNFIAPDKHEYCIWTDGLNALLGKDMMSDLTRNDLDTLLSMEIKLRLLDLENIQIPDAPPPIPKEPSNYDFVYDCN
UniProt P09104, whole entry, looked up: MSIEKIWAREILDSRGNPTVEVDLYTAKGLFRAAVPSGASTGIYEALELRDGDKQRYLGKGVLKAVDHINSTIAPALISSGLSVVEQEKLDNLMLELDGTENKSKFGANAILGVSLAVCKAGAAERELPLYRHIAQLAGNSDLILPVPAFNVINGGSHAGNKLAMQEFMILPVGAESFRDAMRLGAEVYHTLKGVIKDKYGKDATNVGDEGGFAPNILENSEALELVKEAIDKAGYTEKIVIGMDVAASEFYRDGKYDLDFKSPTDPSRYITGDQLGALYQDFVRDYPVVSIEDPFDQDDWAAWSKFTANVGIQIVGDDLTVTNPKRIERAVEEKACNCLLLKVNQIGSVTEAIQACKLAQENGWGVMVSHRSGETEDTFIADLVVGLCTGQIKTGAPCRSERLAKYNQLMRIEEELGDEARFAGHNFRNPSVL
UniProt Q15717, whole entry, looked up: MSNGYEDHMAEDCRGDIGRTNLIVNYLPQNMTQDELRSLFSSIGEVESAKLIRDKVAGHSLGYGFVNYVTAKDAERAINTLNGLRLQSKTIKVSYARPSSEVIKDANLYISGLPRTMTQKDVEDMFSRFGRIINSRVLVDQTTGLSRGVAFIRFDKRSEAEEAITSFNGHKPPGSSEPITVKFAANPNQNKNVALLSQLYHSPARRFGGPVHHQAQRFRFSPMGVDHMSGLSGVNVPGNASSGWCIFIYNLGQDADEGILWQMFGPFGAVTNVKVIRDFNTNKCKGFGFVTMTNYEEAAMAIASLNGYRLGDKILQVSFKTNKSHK
UniProt P50402: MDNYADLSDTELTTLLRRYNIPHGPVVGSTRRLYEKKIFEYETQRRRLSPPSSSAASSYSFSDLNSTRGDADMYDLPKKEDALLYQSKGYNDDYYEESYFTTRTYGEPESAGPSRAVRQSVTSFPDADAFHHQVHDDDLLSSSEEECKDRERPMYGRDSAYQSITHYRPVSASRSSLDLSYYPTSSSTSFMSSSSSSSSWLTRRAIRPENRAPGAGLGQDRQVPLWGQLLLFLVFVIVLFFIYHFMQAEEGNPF
UniProt Q92889: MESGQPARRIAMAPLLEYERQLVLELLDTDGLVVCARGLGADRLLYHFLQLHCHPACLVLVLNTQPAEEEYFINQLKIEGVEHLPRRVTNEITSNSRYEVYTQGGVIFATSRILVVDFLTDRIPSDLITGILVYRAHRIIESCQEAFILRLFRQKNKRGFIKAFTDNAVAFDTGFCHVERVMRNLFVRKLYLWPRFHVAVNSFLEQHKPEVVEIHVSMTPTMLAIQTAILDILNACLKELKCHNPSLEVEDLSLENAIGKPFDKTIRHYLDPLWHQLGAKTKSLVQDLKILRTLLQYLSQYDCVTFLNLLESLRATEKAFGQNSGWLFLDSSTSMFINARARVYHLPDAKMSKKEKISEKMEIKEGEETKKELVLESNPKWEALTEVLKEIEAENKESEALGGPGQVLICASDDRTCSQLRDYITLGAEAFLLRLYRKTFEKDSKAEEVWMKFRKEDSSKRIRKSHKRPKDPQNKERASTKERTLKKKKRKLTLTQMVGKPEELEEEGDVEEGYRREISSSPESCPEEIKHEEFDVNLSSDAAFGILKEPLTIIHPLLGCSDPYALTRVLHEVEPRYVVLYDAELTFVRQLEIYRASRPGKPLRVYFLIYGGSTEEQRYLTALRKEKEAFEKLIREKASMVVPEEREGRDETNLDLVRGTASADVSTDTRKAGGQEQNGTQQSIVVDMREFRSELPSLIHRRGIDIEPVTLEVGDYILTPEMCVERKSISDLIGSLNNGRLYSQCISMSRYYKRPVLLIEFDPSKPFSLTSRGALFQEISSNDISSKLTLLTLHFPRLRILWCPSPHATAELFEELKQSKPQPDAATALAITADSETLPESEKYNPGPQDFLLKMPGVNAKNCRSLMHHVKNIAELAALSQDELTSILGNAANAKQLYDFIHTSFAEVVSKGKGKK
UniProt Q9UI10, whole entry, looked up: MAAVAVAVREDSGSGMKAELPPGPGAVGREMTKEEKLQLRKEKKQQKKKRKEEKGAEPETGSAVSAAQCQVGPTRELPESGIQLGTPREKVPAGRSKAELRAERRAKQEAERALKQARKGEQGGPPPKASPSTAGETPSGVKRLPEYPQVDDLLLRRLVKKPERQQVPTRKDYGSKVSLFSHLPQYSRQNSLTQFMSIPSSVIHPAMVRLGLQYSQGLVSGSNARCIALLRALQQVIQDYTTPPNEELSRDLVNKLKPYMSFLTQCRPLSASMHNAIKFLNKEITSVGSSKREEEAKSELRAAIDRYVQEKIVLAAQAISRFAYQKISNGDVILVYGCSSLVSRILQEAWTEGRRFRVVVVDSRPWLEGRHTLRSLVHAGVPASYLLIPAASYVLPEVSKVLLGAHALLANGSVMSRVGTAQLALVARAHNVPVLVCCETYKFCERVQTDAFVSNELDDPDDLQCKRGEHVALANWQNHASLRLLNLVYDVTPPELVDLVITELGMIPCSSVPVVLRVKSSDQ
UniProt Q5NDL2: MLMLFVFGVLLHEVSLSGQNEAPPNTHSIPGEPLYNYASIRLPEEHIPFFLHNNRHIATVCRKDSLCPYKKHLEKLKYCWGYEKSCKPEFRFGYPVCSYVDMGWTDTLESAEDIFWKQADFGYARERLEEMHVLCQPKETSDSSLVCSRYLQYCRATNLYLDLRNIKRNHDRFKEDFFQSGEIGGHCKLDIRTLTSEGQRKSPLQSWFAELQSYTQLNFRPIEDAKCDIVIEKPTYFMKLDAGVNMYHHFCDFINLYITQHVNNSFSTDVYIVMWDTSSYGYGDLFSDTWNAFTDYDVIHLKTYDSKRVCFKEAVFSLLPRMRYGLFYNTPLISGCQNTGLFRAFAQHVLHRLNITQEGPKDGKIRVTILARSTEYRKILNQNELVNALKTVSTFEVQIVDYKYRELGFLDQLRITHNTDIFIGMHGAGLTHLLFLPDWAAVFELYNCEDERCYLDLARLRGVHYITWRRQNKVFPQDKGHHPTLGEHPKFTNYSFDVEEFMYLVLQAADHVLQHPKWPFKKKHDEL
UniProt Q6IA86: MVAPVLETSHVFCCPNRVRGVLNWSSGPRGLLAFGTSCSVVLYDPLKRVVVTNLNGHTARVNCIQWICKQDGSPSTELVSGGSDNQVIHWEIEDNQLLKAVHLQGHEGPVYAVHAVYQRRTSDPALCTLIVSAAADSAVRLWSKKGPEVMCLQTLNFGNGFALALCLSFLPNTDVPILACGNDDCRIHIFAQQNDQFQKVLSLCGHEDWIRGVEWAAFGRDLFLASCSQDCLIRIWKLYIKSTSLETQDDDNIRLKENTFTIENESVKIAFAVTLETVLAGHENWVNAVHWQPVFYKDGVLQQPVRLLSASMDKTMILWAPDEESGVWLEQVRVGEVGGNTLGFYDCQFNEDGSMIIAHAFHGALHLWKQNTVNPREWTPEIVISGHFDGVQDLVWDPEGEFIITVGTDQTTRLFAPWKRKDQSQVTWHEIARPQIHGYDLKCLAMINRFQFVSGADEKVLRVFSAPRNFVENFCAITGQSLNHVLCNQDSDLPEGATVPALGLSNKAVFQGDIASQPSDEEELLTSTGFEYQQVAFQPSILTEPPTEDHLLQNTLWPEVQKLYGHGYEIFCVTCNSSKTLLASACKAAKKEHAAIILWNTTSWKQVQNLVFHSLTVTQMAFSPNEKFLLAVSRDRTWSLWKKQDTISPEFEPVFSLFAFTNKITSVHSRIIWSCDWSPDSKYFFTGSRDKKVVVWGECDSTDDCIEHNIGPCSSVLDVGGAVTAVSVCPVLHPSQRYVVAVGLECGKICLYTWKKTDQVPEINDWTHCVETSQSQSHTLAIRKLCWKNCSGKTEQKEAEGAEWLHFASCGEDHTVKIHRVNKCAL
UniProt Q9Y2J2, whole entry, looked up: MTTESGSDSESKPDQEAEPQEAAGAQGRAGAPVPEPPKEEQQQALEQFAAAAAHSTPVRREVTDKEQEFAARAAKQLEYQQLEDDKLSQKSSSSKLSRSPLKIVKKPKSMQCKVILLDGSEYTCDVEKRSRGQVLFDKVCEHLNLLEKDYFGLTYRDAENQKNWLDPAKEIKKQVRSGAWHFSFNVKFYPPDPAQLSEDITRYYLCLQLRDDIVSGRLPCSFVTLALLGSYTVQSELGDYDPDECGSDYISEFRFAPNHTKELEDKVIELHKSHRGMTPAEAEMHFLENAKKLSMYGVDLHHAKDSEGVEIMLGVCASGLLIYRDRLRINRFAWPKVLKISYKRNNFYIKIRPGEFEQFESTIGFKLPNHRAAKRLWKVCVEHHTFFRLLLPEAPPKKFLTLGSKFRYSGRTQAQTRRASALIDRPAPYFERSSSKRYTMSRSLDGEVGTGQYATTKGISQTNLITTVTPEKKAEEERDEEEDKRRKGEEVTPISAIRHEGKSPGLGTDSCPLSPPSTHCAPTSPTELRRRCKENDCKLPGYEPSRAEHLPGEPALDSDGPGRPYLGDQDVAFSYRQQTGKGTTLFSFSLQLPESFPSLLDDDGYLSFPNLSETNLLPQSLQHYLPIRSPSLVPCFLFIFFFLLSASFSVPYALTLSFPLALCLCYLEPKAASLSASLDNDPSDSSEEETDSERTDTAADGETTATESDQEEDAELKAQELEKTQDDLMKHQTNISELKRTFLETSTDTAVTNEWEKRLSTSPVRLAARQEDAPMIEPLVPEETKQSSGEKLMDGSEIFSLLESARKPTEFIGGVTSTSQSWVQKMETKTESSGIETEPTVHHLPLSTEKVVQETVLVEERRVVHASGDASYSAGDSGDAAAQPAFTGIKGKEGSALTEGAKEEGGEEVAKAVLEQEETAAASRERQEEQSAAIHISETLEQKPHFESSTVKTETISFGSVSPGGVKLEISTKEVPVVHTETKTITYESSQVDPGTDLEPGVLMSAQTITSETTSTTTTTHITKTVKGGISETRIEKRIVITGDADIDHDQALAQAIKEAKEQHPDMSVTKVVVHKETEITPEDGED
UniProt Q15369, whole entry, looked up: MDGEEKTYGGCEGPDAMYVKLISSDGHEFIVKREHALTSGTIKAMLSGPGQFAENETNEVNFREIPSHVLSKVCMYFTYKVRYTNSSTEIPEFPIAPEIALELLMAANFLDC
UniProt P41214: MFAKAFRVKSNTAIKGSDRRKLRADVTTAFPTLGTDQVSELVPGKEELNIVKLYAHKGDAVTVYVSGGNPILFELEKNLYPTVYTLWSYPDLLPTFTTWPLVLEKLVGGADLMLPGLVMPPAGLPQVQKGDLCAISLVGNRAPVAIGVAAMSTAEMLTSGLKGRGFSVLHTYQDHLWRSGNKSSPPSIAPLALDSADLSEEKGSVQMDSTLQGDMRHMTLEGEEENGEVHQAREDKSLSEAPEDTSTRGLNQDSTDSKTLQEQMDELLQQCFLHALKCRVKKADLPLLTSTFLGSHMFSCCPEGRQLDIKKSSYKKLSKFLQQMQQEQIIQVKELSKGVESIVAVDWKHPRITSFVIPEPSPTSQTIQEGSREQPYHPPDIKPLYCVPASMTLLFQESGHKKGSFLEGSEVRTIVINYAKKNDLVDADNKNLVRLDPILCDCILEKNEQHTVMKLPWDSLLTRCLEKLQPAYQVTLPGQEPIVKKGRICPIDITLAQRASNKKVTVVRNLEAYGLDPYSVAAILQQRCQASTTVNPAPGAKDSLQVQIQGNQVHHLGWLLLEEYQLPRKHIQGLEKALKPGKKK

compound: Cc1cn(-c2cc(NC(=O)c3ccc(C)c(Nc4nccc(-c5cccnc5)n4)c3)cc(C(F)(F)F)c2)cn1 [nilotinib]; assay: log2 fold change, soluble protein after heating vs DMSO (PISA); higher = thermal stabilisation; K562 lysate, 10 uM; active = over 0.2 and 3.5 SD of the protein, either way, in both replicates (recomputed)
Method in brief: (§1)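 To prepare the extract, K562 pellets were dounce-homogenised in PBS pH 7.4 with 1 mM MgCl2, giving crude material at 1 mg/mL protein. This was treated with 10 μM compound for 30 min, then heated in aliquots for 3 min over 48°C-58°C before pooling and addition of NP-40 to 0.5% at 4°C. Centrifugation at 21,000xg for 90 min left soluble protein in the supernatant, which TMTpro 16plex LC-MS/MS quantified with equalised channel sums. Results are log-two fold changes in thermal stability compared with solvent controls, from duplicates.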

log2 fold change, inactive:
ELMO1 (UniProt Q92556) -0.115
ENO2 (UniProt P09104) 0.006
ELAVL1 isoform 2 (UniProt Q15717) -0.035
EMD (UniProt P50402) 0.01
ERCC4 (UniProt Q92889) -0.047
EIF2B4 isoform 2 (UniProt Q9UI10) -0.002
EOGT (UniProt Q5NDL2) 0.029
ELP2 isoform 6 (UniProt Q6IA86) -0.005
EIF4H (UniProt Q15056) -0.019
EPB41L3 (UniProt Q9Y2J2) -0.036
ELOC (UniProt Q15369) 0.032
EIF2D (UniProt P41214) -0.034

compound: Cc1nc(Nc2n[nH]c3c2CN(C(=O)N[C@H](CN(C)C)c2ccccc2)C3(C)C)c2sccc2n1; assay: as above
Method in brief: as §1

log2 fold change, inactive:
ELOVL6 (UniProt Q9H5J4) -0.077
EMC8 (UniProt O43402) 0.004
ERCC3 (UniProt P19447) 0.01
EIF3D (UniProt O15371) 0.002
ERAL1 (UniProt O75616) -0.001
EIF4A2 isoform 2 (UniProt Q14240) -0.015
ERC1 (UniProt X6RLX0) 0.01
EMG1 (UniProt Q92979) -0.009
ENPP3 (UniProt O14638) -0.07
EIF2S3 (UniProt P41091) 0.018
EIF2B2 (UniProt P49770) 0.005
ELMO2 (UniProt Q96JJ3) -0.035
EPB41 (UniProt P11171) 0.024
EIF2AK4 (UniProt Q9P2K8) 0
EP400P1 isoform 6 (UniProt Q6ZTU2) -0.003
ELMOD2 (UniProt Q8IZ81) -0.025
ELAVL4 (UniProt P26378) -0.062
ENGASE (UniProt Q8NFI3) -0.083
EPM2AIP1 (UniProt Q7L775) -0.011
ELF1 (UniProt P32519) 0.015
EIF4E2 (UniProt O60573) 0.053
EIF5A isoform 2 (UniProt P63241) -0.011
EIF4EBP2 (UniProt Q13542) 0.201
ELMO1 (UniProt Q92556) 0.018
ENO2 (UniProt P09104) 0.017
ELAVL1 isoform 2 (UniProt Q15717) -0.014
EMD (UniProt P50402) -0.022
ERCC4 (UniProt Q92889) -0.002
EIF2B4 isoform 2 (UniProt Q9UI10) 0.004
EOGT (UniProt Q5NDL2) 0.046
ELP2 isoform 6 (UniProt Q6IA86) 0.011
EIF4H (UniProt Q15056) 0.005
EPB41L3 (UniProt Q9Y2J2) 0.027
ELOC (UniProt Q15369) -0.012
EIF2D (UniProt P41214) 0.028

compound: Cc1nc(Nc2ncc(C(=O)Nc3c(C)cccc3Cl)s2)cc(N2CCN(CCO)CC2)n1 [dasatinib]; assay: as above
Method in brief: as §1

log2 fold change, inactive:
ELOVL6 (UniProt Q9H5J4) -0.198
EMC8 (UniProt O43402) 0.063
ERCC3 (UniProt P19447) -0.012
EIF3D (UniProt O15371) -0.017
ERAL1 (UniProt O75616) 0.01
EIF4A2 isoform 2 (UniProt Q14240) 0.004
ERC1 (UniProt X6RLX0) 0
EMG1 (UniProt Q92979) -0.029
ENPP3 (UniProt O14638) 0.034
EIF2S3 (UniProt P41091) 0.03
EIF2B2 (UniProt P49770) -0.038
ELMO2 (UniProt Q96JJ3) 0.025
EPB41 (UniProt P11171) 0
EIF2AK4 (UniProt Q9P2K8) -0.021
EP400P1 isoform 6 (UniProt Q6ZTU2) 0.002
ELMOD2 (UniProt Q8IZ81) -0.054
ELAVL4 (UniProt P26378) 0.006
ENGASE (UniProt Q8NFI3) 0.029
EPM2AIP1 (UniProt Q7L775) -0.011
ELF1 (UniProt P32519) 0.005
EIF4E2 (UniProt O60573) -0.036
EIF5A isoform 2 (UniProt P63241) 0.018
EIF4EBP2 (UniProt Q13542) 0.034
ELMO1 (UniProt Q92556) -0.07
ENO2 (UniProt P09104) 0.036
ELAVL1 isoform 2 (UniProt Q15717) -0.029
EMD (UniProt P50402) -0.009
ERCC4 (UniProt Q92889) 0.01
EIF2B4 isoform 2 (UniProt Q9UI10) -0.022
EOGT (UniProt Q5NDL2) -0.093
ELP2 isoform 6 (UniProt Q6IA86) -0.026
EIF4H (UniProt Q15056) 0.047
EPB41L3 (UniProt Q9Y2J2) 0.021
ELOC (UniProt Q15369) -0.017
EIF2D (UniProt P41214) -0.027
